According to PMC3407066:
These are yes or no findings as the source states them, for the method shown. In cells and extracts the contact can be indirect.

By UniProt entry, the sequences of proteins in these tests, tags left out. Residues count along the entry.
UniProt P37173, residues 23-567: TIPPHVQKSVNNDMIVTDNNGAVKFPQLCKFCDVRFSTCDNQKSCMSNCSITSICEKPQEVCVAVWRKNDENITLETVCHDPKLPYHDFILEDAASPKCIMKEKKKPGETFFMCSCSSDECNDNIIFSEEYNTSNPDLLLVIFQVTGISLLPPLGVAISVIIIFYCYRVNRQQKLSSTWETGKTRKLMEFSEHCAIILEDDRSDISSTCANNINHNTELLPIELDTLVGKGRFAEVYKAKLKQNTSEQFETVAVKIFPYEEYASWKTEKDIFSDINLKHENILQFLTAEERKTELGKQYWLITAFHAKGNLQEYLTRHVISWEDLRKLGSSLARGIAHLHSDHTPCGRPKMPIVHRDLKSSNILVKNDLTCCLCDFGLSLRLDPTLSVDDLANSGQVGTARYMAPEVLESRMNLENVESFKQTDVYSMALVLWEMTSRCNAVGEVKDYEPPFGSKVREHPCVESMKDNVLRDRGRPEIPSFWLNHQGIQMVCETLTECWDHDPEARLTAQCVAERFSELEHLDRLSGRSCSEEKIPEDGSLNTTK
UniProt Q8TC59: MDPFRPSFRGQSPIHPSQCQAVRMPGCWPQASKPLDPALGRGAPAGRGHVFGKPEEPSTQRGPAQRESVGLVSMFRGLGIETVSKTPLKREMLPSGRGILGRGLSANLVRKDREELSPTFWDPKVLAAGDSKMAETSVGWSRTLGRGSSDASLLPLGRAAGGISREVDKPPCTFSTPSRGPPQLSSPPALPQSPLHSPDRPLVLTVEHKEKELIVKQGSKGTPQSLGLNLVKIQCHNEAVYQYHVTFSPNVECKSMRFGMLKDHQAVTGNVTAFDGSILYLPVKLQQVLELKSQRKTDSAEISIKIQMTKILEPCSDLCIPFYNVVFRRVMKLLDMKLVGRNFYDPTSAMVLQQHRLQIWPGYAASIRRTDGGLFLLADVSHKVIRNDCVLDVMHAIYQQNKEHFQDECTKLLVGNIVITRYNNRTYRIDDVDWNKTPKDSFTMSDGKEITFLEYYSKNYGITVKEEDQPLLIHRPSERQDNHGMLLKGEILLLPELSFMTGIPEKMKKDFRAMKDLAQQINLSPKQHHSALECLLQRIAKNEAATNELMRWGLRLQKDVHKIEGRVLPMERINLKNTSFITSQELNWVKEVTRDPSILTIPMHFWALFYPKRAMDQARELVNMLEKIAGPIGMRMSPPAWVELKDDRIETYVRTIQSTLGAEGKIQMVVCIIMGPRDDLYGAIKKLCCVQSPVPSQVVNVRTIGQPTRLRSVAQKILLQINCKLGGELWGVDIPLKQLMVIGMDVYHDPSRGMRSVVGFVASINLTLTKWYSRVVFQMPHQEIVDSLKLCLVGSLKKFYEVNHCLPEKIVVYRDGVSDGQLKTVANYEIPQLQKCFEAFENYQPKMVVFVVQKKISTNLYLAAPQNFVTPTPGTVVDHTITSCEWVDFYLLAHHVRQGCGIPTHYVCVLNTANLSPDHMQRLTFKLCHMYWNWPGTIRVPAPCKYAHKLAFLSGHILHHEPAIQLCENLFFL

Tests used:
[1] = biological target: T1, TGF-β type I receptor (TβRI), endogenous (human (endogenous in HEK-293)) (UniProt P36897); test: co-IP; endogenous proteins of HEK-293 cells; reciprocal IP with anti-HILI or anti-Hsp90, Western blotting
T1 sequence: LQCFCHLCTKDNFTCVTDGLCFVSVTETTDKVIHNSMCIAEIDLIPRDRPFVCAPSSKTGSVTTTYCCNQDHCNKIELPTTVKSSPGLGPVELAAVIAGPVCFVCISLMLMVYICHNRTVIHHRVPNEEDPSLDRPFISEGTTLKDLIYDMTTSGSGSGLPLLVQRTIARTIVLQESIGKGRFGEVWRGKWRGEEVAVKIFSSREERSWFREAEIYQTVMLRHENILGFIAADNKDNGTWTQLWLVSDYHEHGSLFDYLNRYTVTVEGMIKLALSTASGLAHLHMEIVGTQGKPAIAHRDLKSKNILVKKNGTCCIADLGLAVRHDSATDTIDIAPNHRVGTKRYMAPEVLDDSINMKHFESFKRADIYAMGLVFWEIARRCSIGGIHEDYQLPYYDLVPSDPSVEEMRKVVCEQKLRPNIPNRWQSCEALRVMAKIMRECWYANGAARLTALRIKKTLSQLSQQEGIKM

[2] = biological target: TGF-β type II receptor (TβRII), endogenous (human (endogenous in HEK-293)) (UniProt P37173); test: as above

endogenous HILI (human PIWIL2) (from UniProt Q8TC59 1-973)
binding [1]: no binding | binding [2]: no binding
